PubChem BioAssay AID1671190 (National Center for Advancing Translational Sciences (NCATS), 2021)
The campaign covered roughly 580,000 compounds. About 6,100 (1.1%) were called active. The inconclusive results got no clear call from the source; some entries with a clear call stand among them for comparison. The call rests on the fitted dose curve; in most records, active means well fitted inhibition curve with a large enough effect; inconclusive means small, poorly fitted or top-dose-only effect, or another doubt; inactive means no such curve, though single readings can be large or run the other way. A potency beside an inconclusive call is a rough fit, not a confirmed value.

Protein sequences, listed by entry. Tags and fused reporters are not part of them. Lines headed by an entry give the natural chain unless they say otherwise; changes in a name come on top.
UniProt P18054: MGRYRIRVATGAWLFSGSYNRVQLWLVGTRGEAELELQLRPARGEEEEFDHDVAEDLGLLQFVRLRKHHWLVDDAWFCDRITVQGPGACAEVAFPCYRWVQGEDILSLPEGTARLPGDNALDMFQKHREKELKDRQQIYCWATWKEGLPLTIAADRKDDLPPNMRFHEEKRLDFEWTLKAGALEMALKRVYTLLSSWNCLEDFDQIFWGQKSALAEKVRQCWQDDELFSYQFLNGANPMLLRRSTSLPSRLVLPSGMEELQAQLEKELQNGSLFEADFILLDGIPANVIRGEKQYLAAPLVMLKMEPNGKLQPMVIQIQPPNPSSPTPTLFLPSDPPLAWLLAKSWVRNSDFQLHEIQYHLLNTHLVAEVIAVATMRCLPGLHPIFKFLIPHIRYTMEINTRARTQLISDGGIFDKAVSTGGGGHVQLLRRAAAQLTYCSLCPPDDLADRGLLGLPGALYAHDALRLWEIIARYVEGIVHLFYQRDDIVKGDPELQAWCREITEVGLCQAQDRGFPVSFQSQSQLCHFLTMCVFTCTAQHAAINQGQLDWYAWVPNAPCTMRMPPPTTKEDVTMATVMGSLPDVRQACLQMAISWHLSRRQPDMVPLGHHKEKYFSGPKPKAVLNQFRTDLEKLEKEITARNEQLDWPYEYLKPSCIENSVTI

target: Polyunsaturated fatty acid lipoxygenase ALOX12 (Homo sapiens) (UniProt P18054); assay: Primary qHTS assay for inhibitors of human arachidonate 12S-lipoxygenase (ALOX12): Round 2; details: purified 12hLO, xylenol orange hydroperoxide absorbance; activity change, negative = inhibition: at 108 µM (top of the series) unless noted
Method in brief: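 Purified human 12hLO (150 nM final) in 25 mM Hepes, 0.01% Triton X-100, pH 7.0 was preincubated 15 min at room temperature with compound. Then 40 uM arachidonic acid was added, 30 min. Hydroperoxide was read by Fe-XO absorbance ratio 573/405 nm.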
On the % scale 0 is the no-effect control and ±100 the full control effect; potency means the concentration at half of the fitted maximal effect.

Structure (SMILES)	activity change, negative = inhibition	Potency
CCc1oc2cc(O)ccc2c(=O)c1-c1ccccc1OC	inactive: -29.6%	
OCc1c[nH]c2c1ccc1ccccc12		inconclusive: 0.501 µM [inhibitor, full curve, poor fit]
COc1ccc(N2C[C@@]3(O)CC[C@@H](O)[C@@H](OC)[C@@H]3[C@@]2(C)[C@H](O)CC=C(C)C)cc1		inconclusive: 22.4 µM [inhibitor, partial curve, poor fit]
C#Cc1ccc(NC(=O)C2(C)CCN2C(=O)Cc2ccc(-c3ccccc3)cc2)cc1 (centres undefined)		inconclusive: 126 µM [inhibitor, single point]
COC(=O)C1C(=O)C=C(N)CC1c1ccco1 (centres undefined)		inconclusive: 5.01 µM [inhibitor, full curve, poor fit]
C[C@H]1CN([C@@H](C)CO)C(=O)c2cc(-c3cccc(F)c3)cnc2O[C@H]1CN(C)C(=O)c1cnccn1		inconclusive: 35.5 µM [inhibitor, partial curve, poor fit]
CCOC(=O)c1ccc(NC(=O)Cn2cc(C(=O)c3ccc(CC)cc3)c(=O)c3ccc(C)nc32)cc1	inactive: -14.3%	
COc1ccc(Oc2c(-c3ccc(O)cc3O)n[nH]c2C)cc1	inactive: 4.9%	
CCN1c2ccccc2-c2nc(SCC(=O)NCc3ccc(C)cc3)ncc2S1(=O)=O		inconclusive: 100 µM [inhibitor, single point]
Cc1ccc(S(=O)(=O)c2c(N)n(CCN3CCOCC3)c3nc4ccccc4nc23)cc1C	inactive: -8.41%	
COc1cccc(OC)c1C(=O)Nc1cccc(-c2ccc(N3CCOCC3)nn2)c1		inconclusive: 39.8 µM [inhibitor, partial curve, poor fit]
CC(=O)c1c(C)oc2ccc(N(C(C)=O)S(=O)(=O)c3ccc(Cl)c([N+](=O)[O-])c3)cc12	inactive: 0%	
Cc1onc(-c2c(Cl)cccc2Cl)c1COC(=O)c1ccc([N+](=O)[O-])cc1	inactive: 0%	
Cc1ccc(CNC(=O)CSc2nnc(C(=O)Nc3ccc(C)cc3)s2)cc1	inactive: 18%	
Cn1cc(-c2cc(=O)c3ccnc(NCc4ccc(F)cc4)c3o2)cn1		inconclusive: 89.1 µM [inhibitor, partial curve, poor fit]
O=C1CCCC2=C1C(c1ccc(Cl)cc1)CC(=O)N2c1ccc(F)cc1 (centres undefined)		inconclusive: 44.7 µM [inhibitor, partial curve, poor fit]
Cn1cnc2cc(Nc3ccc(Cl)cc3F)cc(C(=O)NCc3cccnc3)c21	inactive: 6.93% [at 176 µM]	
FC(F)Oc1ccc(-c2ccnc(=S)[nH]2)cc1		inconclusive: 1.12 µM [inhibitor, full curve, poor fit]
COc1ccc(NS(=O)(=O)c2cccc(C(=O)NNC(=O)CNC(=O)c3cccc(C)c3)c2)cc1	inactive: -16%	
COc1ccccc1Nc1nc(C)cc(C)c1C(N)=O	inactive: 24.9%	
COc1cc(CNCCc2ccc(S(N)(=O)=O)cc2)ccc1OCC(=O)NC1CCCCC1	inconclusive: -31.7% [inhibitor]	
CN1CCCC(C)(C(=O)Nc2ccc3scnc3c2)C1 (centres undefined)		inconclusive: 126 µM [inhibitor, single point]

Structure (SMILES)	activity change, negative = inhibition	Potency
Cc1cccc(C)c1NC(=O)C1C(c2ccc3c(c2)OCO3)=Nc2ccccc2N1C(=O)c1ccccn1 (centres undefined)		inconclusive: 0.501 µM [inhibitor, full curve, poor fit]
Cc1ccc(N(CC(=O)NC2CCCCC2C)S(=O)(=O)c2c(C)nn(C)c2C)cc1 (centres undefined)	inactive: -0.706%	
CC1CCC(NC(=O)/C=C/c2ccc(C(=O)NC3CC3)cc2)CC1 (centres undefined)		inconclusive: 39.8 µM [inhibitor, partial curve, poor fit]
COc1ccc(CC(N)c2csc(Nc3nncc4ccccc34)n2)cc1 (centres undefined)		inconclusive: 56.2 µM [inhibitor, partial curve, poor fit]
CCNC(=O)CSc1nc(C2CC2)nc2ccccc12	inactive: 3.99%	
N#Cc1c(-c2ccccc2)cc(-c2cccs2)nc1SCCS(=O)Cc1ccccc1 (centres undefined)		inconclusive: 56.2 µM [inhibitor, partial curve, poor fit]
S=C(CN1CCCC1=S)NCCc1ccccc1		inconclusive: 89.1 µM [inhibitor, partial curve, poor fit]
CNC(=O)CSc1nc(-c2ccccc2)c(-c2ccccc2)[nH]1		inconclusive: 44.7 µM [inhibitor, partial curve, poor fit]
COc1ccc(-c2noc(C(=O)O)c2[C@@H](C)NC(=O)C2CCCCC2)cc1		inconclusive: 56.2 µM [inhibitor, single point]
CN(C(=O)CSc1nnc(Nc2ccccc2F)s1)c1ccccc1		inconclusive: 100 µM [inhibitor, partial curve, poor fit]
Oc1cccc2ccc(/C=C/c3cccs3)nc12		inconclusive: 25.1 µM [inhibitor, full curve, poor fit]
O=C1C(N2CCN(S(=O)(=O)c3ccc(F)cc3F)CC2)CCN1Cc1cccnc1 (centres undefined)		inconclusive: 17.8 µM [inhibitor, full curve]
Cc1cc(Cc2cc(C)c(O)c(CO)c2)cc(CO)c1O		inconclusive: 112 µM [inhibitor, single point]
Cc1ccc(S(=O)(=O)Oc2ccc3oc(=O)c(-c4ccccc4)c(C)c3c2)cc1	inactive: 4.42%	
CC(=O)Nc1cccc(NC(=O)C(=O)c2cn(CC(=O)N3CCOCC3)c3ccccc23)c1		inconclusive: 50.1 µM [inhibitor, partial curve, poor fit]
O=C1CCN(CCc2ccccc2)CCN1[C@H](CSc1ccc(Br)cc1)Cc1ccccc1		inconclusive: 44.7 µM [inhibitor, partial curve, poor fit]
COc1ccc(NC(=O)C(=O)NCC(c2cccnc2)N2CCc3ccccc32)cc1OC (centres undefined)		inconclusive: 158 µM [inhibitor, single point]
O=C(c1cc(COc2ccc(F)cc2Cl)on1)N1CCCC(c2ccccc2)C1 (centres undefined)	inactive: 11.6%	
COc1cccc(CC(=O)N2CCCCCCNC(=O)[C@H]3CCC[C@H]32)c1	inactive: 45%	
COc1cc(/C=C/C(=O)c2cccs2)ccc1O		inconclusive: 100 µM [inhibitor, single point]
COc1cccc(S(=O)(=O)N2CCN(Cc3ccc4c(c3)OCO4)CC2)c1		inconclusive: 224 µM [inhibitor, partial curve, poor fit]
Cc1cnn(C(=S)NCC2CCCO2)c1 (centres undefined)		inconclusive: 3.98 µM [inhibitor, partial curve, poor fit]

Structure (SMILES)	activity change, negative = inhibition	Potency
COc1ccc2c3c([nH]c2c1)[C@@H](CO)N(Cc1ccccc1Cl)CC31CN(C(=O)C2CC2)C1		active: 15.8 µM
O=c1cc(N2CCOCC2)oc2c(-c3cccc4[nH]ccc34)nccc12		inconclusive: 100 µM [inhibitor, single point]
COc1ccc(Br)cc1C(C[N+](=O)[O-])c1c(N)n(C)c(=O)n(C)c1=O (centres undefined)		inconclusive: 35.5 µM [inhibitor, partial curve, poor fit]
CCCOC(=O)c1ccc(Oc2c(C)oc3cc(OC)ccc3c2=O)cc1	inactive: 0.156%	
Cc1ccc(C)c(N2CCN(C(=O)CCc3conc3-c3ccccc3F)CC2)c1		inconclusive: 79.4 µM [inhibitor, single point]
CC(=O)c1cc2c(cc1NC(=O)Cn1c(Nc3cccc(F)c3)nc(C)cc1=O)OCO2		inconclusive: 50.1 µM [inhibitor, partial curve, poor fit]
CCOc1ccc(C(=O)N2C[C@@H](CO)[C@H](c3nc(C4CC4)no3)C2)cc1	inactive: 36.5%	
O=C(NCCCN1CCCCCC1)C1CCCN(S(=O)(=O)c2cccc3nsnc23)C1 (centres undefined)		inconclusive: 1.41 µM [inhibitor, partial curve, poor fit]
COC(=O)c1ccc(COC(=O)CC23CC4CC(CC(Br)(C4)C2)C3)o1		inconclusive: 28.2 µM [inhibitor, partial curve, poor fit]
O=C(Nc1ccc2nc(SCC(=O)N3CCc4ccccc43)sc2c1)c1ccc(F)cc1	inactive: -15.4%	
CCOC(=O)C(C)N1C(=O)S/C(=C/c2ccc(Cl)s2)C1=O (centres undefined)		inconclusive: 11.2 µM [inhibitor, full curve, poor fit]
CCCN1C(=O)CC(c2ccco2)Sc2ccccc21 (centres undefined)		inconclusive: 50.1 µM [inhibitor, partial curve, poor fit]
CNC(=S)N1N=C(c2ccc(Br)cc2)CC1c1ccc(OC)cc1 (centres undefined)		inconclusive: 5.62 µM [inhibitor, full curve, poor fit]
CCCC(=O)N1C[C@@H]2CCCN3CCC[C@@H]([C@H]23)[C@H]1CCCC(=O)N1CCOCC1	inactive: 49%	
O=C(Cc1ccccc1[N+](=O)[O-])N1CCN(c2ccc(F)cc2)CC1		inconclusive: 112 µM [inhibitor, single point]
CCc1nc(SCc2ccccn2)[nH]c(=O)c1C		inconclusive: 56.2 µM [inhibitor, partial curve, poor fit]
Cc1nc([N+](=O)[O-])nn1C12CC3CC(CC(Br)(C3)C1)C2		inconclusive: 7.08 µM [inhibitor, full curve]
CCOC(=O)c1c(CN2CCC(C(=O)NCC(F)(F)F)CC2)nc2ccccc2c1C	inactive: 8.76%	
CC1=C(C(=O)O)N2C(=O)C(NC(=O)c3nn(C)cc3Cl)C2SC1 (centres undefined)		inconclusive: 28.2 µM [inhibitor, single point]
COc1ccc(-c2ccc(C(=O)Nc3cc(OC)c(OC)c(OC)c3)c3occc23)c(C)c1		inconclusive: 112 µM [inhibitor, partial curve, poor fit]

Some of the entries so far, as comma-separated lines:
Structure (SMILES),"activity change, negative = inhibition",Potency
CNC(=S)N1N=C(c2ccc(Br)cc2)CC1c1ccc(OC)cc1 (centres undefined),,"inconclusive: 5.62 µM [inhibitor, full curve, poor fit]"
CCCC(=O)N1C[C@@H]2CCCN3CCC[C@@H]([C@H]23)[C@H]1CCCC(=O)N1CCOCC1,inactive: 49%,
